In paper PMC6536593:
No constants are given. Whether binding was seen depends on the method and setting. In cells and extracts the contact can be indirect. Some binding calls cover weakened binding; strength is not graded here.

Amino acid sequences for entries named in this document (tags omitted).
UniProt Q8R4B8: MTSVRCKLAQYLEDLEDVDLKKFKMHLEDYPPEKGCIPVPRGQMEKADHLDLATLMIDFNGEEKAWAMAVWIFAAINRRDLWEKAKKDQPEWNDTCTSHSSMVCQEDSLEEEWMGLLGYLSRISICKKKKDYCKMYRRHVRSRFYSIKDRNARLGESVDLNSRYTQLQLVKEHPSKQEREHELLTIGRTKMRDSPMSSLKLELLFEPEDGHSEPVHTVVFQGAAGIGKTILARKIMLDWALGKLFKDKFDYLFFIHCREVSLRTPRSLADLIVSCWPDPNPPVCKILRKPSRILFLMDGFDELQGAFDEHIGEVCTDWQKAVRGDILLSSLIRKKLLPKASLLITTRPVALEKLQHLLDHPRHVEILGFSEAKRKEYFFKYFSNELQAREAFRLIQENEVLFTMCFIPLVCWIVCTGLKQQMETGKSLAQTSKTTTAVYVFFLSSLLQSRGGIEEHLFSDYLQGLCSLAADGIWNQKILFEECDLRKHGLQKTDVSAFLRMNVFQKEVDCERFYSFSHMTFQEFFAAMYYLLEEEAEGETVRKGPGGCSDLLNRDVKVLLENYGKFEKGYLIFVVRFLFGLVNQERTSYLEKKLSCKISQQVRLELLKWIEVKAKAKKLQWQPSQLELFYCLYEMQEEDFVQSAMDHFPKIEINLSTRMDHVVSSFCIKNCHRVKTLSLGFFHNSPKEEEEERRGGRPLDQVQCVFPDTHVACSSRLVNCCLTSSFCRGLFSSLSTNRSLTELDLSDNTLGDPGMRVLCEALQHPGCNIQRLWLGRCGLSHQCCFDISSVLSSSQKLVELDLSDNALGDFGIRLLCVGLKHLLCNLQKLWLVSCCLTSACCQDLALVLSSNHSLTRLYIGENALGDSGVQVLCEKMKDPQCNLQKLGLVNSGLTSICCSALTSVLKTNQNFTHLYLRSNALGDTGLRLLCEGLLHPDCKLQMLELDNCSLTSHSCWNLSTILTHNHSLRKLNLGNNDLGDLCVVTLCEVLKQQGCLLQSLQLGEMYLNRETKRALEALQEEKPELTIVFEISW
UniProt D4A523: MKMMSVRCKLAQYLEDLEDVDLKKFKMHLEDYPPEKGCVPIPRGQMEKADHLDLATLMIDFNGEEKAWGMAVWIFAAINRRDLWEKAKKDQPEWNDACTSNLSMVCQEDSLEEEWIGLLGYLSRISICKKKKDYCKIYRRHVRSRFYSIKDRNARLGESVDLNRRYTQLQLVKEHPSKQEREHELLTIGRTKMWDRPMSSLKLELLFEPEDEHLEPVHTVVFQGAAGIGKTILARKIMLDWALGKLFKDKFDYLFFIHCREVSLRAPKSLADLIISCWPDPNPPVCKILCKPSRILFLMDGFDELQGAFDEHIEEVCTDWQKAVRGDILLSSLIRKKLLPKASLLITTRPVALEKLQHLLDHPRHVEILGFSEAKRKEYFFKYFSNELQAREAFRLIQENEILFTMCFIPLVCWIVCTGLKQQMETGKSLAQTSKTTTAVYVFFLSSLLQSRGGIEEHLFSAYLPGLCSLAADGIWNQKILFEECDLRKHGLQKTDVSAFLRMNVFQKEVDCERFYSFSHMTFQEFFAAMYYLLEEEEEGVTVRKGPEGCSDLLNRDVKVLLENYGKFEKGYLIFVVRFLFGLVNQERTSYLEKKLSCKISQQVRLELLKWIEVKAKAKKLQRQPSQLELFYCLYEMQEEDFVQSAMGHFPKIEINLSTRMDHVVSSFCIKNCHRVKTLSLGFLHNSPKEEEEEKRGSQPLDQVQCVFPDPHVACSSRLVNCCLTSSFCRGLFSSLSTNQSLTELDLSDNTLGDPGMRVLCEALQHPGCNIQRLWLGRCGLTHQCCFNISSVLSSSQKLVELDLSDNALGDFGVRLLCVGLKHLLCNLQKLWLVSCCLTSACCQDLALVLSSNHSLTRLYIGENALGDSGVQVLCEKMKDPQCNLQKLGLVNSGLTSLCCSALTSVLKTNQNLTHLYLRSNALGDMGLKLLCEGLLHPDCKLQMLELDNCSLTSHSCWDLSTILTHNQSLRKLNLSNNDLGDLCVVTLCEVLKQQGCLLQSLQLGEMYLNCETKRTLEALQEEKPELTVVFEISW

How the values were obtained:
[1] = biological target: T1, Thioredoxin interacting protein (TxNIP), expressed from a plasmid in HEK293 cells (UniProt Q9H3M7); assay: co-IP; HEK293 cells co-transfected with TxNIP and NLRP3-FLAG (with or without OGT or OGA plasmids), 24 h at 5 mM or 25 mM glucose, or 5 mM glucose with PUGNAc and glucosamine; lysis in IPH buffer (20 mmol/L Tris/HCl, 150 mmol/L NaCl, 0.5% NP-40); IP with anti-TxNIP antibody overnight at 4°C, protein G Sepharose; blot with anti-Flag
T1 sequence (chain, O-GlcNAcylated to varying degree (sites not identified)): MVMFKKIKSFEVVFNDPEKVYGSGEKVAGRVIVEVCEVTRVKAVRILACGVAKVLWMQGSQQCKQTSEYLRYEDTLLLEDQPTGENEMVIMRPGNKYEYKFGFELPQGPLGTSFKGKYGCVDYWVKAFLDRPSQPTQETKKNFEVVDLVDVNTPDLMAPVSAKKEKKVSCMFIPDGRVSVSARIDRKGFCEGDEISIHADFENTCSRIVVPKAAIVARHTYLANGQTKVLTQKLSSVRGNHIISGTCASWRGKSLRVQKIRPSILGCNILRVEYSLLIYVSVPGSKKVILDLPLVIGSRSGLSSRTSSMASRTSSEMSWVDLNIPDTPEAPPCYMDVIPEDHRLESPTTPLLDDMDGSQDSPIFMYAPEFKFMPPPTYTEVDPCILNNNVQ

[2] = biological target: T2, Endogenous TxNIP of INS1 832/13 cells (rat (endogenous in INS1 832/13)) (UniProt Q5M7W1); assay: co-IP; endogenous proteins in INS1 832/13 cells, 24 h at 2.5 mM or 20 mM glucose supplemented with PUGNAc; lysis in IPH buffer; IP with anti-TxNIP antibody overnight at 4°C, protein G Sepharose; blot with anti-NLRP3
T2 sequence: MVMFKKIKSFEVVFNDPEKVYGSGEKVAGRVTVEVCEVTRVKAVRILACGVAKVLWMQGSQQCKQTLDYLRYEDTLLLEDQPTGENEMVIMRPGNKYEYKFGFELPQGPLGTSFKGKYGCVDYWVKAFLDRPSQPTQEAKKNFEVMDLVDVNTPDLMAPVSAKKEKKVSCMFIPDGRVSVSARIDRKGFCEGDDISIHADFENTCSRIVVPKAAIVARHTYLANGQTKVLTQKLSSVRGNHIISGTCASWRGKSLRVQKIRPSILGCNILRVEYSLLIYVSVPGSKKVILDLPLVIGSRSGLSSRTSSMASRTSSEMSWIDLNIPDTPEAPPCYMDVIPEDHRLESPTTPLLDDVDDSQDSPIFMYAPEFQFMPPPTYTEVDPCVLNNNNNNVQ

binding [1]	binding [2]	Substance
binds	–	NLRP3 (NOD-like receptor family pyrin domain containing 3) tagged with a FLAG epitope (from UniProt Q8R4B8 1-1033)
–	binds	Endogenous NLRP3 of INS1 832/13 cells (from UniProt D4A523 1-1035)
